Data as given in patent US20250025383A1, “EMOLLIENT COMPOSITION IN EMULSION FORM” (PIERRE FABRE MEDICAMENT, priority 2018, published 2025).
At least one compound was matched to its structure with a doubt left. Some compounds share one wording; it may come from a single statement.

Test system: Pseudomonas aeruginosa (PA), Staphylococcus aureus (SA), Escherichia coli (EC), Candida albicans (CA), Aspergillus brasiliensis (AB)
Assay: Microbiological test (preservative efficacy, European Pharmacopoeia 8th Edition § 5.1.3 criteria A and B)
Assay type: cell-based

With `CCCCCCCCCCC(CO)CCCCCCCC` (centres unmarked) [Octyldodecanol] the “Results of microbiological tests (compliance with criteria)” value (preservative alone at 5% in emulsion) was “neither A nor B”.
In the case of `[O]=[Zn]` [Zinc oxide], the “Results of microbiological tests (compliance with criteria)” value (preservative alone at 1% in emulsion) is reported as “neither A nor B”.
